According to article PMC6836474:
No constants are given. Whether binding was seen depends on the method and setting. In cells and extracts the contact can be indirect. Some binding calls cover weakened binding; strength is not graded here.

Amino acid sequences for entries named in this document (tags omitted). Residues count along the entry.
UniProt P46531, residues 19-2555: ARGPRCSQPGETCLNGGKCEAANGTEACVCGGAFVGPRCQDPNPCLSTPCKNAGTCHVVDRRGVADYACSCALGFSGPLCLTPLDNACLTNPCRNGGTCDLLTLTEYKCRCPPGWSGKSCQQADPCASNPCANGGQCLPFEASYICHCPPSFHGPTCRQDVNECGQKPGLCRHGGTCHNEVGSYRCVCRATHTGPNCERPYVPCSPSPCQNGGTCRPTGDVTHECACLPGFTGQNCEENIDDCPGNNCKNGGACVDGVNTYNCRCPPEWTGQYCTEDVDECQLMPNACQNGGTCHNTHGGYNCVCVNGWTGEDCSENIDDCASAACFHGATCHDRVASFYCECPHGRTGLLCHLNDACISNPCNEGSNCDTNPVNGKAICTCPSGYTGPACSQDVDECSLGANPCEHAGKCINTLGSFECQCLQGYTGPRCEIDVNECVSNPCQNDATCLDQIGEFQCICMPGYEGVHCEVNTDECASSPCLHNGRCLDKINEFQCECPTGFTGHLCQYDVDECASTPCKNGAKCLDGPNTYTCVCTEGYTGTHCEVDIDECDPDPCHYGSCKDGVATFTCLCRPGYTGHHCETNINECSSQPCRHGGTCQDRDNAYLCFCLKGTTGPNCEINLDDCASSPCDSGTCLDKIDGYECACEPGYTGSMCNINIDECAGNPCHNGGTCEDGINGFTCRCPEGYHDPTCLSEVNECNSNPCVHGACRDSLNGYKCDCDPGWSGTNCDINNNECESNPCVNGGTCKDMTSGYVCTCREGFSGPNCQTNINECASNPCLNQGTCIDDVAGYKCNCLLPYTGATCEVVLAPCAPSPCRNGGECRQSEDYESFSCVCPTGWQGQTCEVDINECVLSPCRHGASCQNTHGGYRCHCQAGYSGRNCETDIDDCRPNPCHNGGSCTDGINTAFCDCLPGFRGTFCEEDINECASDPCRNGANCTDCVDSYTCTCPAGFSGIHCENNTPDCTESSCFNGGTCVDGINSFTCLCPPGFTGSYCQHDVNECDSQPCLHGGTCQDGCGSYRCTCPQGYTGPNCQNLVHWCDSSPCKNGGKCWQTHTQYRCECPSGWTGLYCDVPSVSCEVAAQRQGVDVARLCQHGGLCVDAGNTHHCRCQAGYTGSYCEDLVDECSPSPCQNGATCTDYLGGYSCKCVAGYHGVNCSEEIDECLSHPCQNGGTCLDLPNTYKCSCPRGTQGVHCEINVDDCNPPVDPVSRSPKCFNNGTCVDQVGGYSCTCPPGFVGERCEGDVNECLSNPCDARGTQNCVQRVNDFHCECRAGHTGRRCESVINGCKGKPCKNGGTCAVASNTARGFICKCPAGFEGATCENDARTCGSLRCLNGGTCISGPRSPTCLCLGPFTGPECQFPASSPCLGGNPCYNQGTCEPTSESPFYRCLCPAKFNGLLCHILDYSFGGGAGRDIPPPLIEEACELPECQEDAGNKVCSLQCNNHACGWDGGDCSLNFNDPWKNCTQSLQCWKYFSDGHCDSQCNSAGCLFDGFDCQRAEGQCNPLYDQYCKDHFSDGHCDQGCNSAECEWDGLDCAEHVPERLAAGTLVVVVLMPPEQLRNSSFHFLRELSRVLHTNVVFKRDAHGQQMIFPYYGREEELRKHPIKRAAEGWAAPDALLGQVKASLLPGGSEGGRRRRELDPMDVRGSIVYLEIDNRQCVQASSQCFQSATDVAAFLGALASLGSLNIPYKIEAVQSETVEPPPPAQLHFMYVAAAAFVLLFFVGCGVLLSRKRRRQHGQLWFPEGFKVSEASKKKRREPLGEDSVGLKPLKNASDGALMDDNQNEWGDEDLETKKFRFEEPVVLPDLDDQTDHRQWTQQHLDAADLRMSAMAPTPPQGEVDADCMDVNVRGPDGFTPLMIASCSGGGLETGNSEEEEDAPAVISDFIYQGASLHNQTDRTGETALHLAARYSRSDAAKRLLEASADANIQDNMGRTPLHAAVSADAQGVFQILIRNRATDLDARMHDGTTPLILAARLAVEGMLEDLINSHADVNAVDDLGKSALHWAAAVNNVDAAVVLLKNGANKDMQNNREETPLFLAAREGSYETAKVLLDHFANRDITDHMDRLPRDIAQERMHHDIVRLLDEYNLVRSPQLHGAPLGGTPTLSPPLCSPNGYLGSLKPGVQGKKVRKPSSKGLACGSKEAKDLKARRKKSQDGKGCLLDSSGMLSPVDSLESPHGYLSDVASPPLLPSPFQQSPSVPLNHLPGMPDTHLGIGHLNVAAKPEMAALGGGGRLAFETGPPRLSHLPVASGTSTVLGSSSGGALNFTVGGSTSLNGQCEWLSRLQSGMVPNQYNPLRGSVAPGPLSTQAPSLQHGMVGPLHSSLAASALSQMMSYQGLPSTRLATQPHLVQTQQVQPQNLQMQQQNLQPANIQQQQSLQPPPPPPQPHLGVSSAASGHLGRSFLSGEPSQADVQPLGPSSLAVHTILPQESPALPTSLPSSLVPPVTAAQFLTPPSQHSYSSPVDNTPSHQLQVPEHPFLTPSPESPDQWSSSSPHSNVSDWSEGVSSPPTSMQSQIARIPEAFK
UniProt P78504, residues 34-1218: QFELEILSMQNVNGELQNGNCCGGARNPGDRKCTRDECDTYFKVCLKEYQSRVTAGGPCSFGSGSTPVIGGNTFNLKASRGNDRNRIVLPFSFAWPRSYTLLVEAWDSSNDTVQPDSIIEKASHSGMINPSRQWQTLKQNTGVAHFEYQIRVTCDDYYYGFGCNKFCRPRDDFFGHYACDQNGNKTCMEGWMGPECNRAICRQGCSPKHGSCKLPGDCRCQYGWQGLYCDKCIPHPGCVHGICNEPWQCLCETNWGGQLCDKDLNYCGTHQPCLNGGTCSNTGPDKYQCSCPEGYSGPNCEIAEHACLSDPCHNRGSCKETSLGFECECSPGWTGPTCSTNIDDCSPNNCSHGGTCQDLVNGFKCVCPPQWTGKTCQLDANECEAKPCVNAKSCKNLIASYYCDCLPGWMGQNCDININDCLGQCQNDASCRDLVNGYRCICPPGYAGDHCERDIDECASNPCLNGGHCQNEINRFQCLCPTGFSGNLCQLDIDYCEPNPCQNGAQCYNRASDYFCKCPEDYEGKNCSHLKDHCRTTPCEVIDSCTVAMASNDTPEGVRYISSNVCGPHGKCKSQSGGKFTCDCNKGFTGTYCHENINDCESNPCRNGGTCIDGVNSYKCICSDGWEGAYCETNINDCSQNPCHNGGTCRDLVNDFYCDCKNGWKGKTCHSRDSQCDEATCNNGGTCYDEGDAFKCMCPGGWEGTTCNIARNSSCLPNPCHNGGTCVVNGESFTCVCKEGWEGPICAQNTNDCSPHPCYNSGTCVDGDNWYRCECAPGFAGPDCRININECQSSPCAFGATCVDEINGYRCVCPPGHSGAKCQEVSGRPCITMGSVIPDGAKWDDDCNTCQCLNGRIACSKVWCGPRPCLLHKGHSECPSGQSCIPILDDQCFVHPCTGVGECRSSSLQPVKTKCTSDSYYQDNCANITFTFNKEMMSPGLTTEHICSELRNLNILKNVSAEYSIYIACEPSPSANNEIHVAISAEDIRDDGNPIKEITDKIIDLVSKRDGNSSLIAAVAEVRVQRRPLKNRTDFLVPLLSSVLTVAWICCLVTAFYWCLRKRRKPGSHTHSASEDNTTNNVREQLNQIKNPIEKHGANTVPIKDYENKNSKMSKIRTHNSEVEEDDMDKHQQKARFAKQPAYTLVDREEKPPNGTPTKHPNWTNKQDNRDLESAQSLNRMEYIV

Target: Notch1 (UniProt P46531)
Assay: co-IP; cells in 10-cm dishes transfected with 10 μg corresponding plasmids, harvested in PBS containing 1% NP40; Western blot; which partner was precipitated is not stated

Substance: JAG1 (from UniProt P78504 34-1218) (ligand)
- binding: binds
